Measured values: patent publication US20130072459A1, “PHARMACEUTICAL COMPOSITION FOR THE PREVENTION OR THE TREATMENT OF NON-ALCOHOLIC FATTY LIVER DISEASE AND THE METHOD FOR PREVENTION OR TREATMENT OF NON-ALCOHOLIC FATTY LIVER DISEASE USING THE SAME” (priority 2010, published 2013)

Tested on: HepG2 cells
Assay: Free fatty acid-induced intracellular fat accumulation, Nile Red staining
Format: cell-based
Conditions: Homo sapiens, 0.5 mM free fatty acid, 24 hours, read-out: inhibitory effects on free fatty acid-induced fat accumulation
Protocol: By a combined treatment of free fatty acid and a drug, inhibitory effects of individual drugs on intracellular fat accumulation were quantified using a triglyceride staining method. The human hepatoma cell line, HepG2 cells were cultured in a minimum essential medium (MEM) containing 10(v/v) % fetal bovine serum for 48 hours. […] For the negative control group, a MEM containing 1(v/v) % bovine serum albumin was treated with 0.1(v/v) % dimethyl sulfoxide with no addition of free fatty acid. After the culture was complete, the medium was removed and the cells were washed with a phosphate buffer. […] After the staining was complete, the supernatant was discarded and replaced with a phosphate buffer, followed by measurement of fluorescence intensities under conditions of a 488 nm excitation wavelength and a 550 nm emission wavelength. Then, in order to correct a deviation according to the cell count, a phosphate buffer containing 10 μM resazurin (Sigma) dissolved therein was added to the same well. Thereafter, before and after the reaction at 37° C. for 1 hour under light-shielded conditions, fluorescence intensities were measured using a fluorometer under conditions of a 535 nm excitation wavelength and a 580 nm emission wavelength, whereby an increase in fluorescence intensity due to resorufin reduced and formed by the intracellular mitochondrial activity was measured. […]

CC(C)OC(=O)C(C)(C)Oc1ccc(C(=O)c2ccc(Cl)cc2)cc1 [fenofibrate]
inhibition at 30 µM: 35.6 ± 6.5%
